{"source": "patent US20230398228A1", "about": "“ERIBULIN-BASED ANTIBODY-DRUG CONJUGATES AND METHODS OF USE” (EISAI R&D MANAGEMENT CO., LTD., priority 2016, published 2023)", "key": {"[1]": {"experiment": "Fluorometric free thiol quantitation of partially reduced MORAb-003"}, "[2]": {"experiment": "DAR analysis by LC-MS (UPLC/ESI-MS, reverse-phase LC-MS)", "conditions": "maleimido-PEG2-biotin conjugation", "protocol": "ADCs were deglycosylated using PNGase F (New England BioLabs). G7 buffer (10 μL) and PNGase F (2 μL) were added to the mAb (90 μL, 1 mg/mL in DPBS). The reaction was incubated in a Discover microwave (CEM) for 2 cycles: (1) microwave power 10 W, 37° C., 10 min, followed by a 5-min pause; (2) microwave power 2 W, 37° C., 10 min. A portion of the sample was reduced by adding DTT to a final concentration of 20 mM, followed by incubation at 60° C. for 3 min. Samples were then analyzed using a Waters Acquity Ultra Performance Liquid Chromatography (UPLC) and quadrupole time of flight (Q-Tof) Premier mass spectrometer. Samples (0.5-2 μg each) were injected onto a MassPrep™ micro desalting column at 65° C., eluted from the column with a 5 min equilibration in 95% of mobile phase A, a 10 min gradient (5-90% B), and a 10 min re-equilibration in 95% of mobile phase A, at 0.05 mL/min. Mobile phase A was 0.1% formic acid in water. Mobile phase B was 0.1% formic acid in acetonitrile. The Q-Tof mass spectrometer was run in positive ion, V-mode with detection in the range of 500-4000 m/z. The source parameters were as follows: capillary voltage, 2.25 kV (intact antibody)-2.50 kV (reduced antibody); sampling cone voltage, 65.0 V (intact antibody) or 50.0 V (reduced antibody); source temperature, 100° C.; desolvation temperature, 250° C.; desolvation gas flow, 550 L/hr. The protein peak was deconvoluted using the MassLynx® MaxEnt 1 function. Relative intensities of each unconjugated, singly-conjugated, and multiply-conjugated heavy and light chain masses were combined to calculate the overall DAR using the formula:\n2[[ILC+1+2(ILC+2)+3(ILC+3)+ . . . n(ILC+n)]/ΣILCtot]+2[[IHC+1+2(IHC+2)+3(IHC+3)+ . . . n(IHC+n)]/ΣIHCtot]\nwhere ILC+1 is mass intensity of light chain conjugated with one cytotoxin, ILC+2 is mass intensity of light chain conjugated with two cytotoxins, etc. IHC are the intensities from the corresponding conjugated heavy chains, and ΣILCtot and ΣIHCtot are the combined intensities of all unconjugated and conjugated light chains and heavy chains, respectively.\nDAR was also analyzed using an LC-MS method with a Waters Alliance HPLC with SQD/PDA detection. Samples were injected onto a Proteomix RP-1000 column ([…], 1000A, 4.6 mm×15 cm, Sepax) at 65° C., and eluted with a 3 min equilibration in 25% B, a 27 min linear gradient from 25%-55% B, a 5 min hold at 55% B, a 1 min change to 90% B, a 5 min hold at 90% B, a 1 min change back to 25% B, and a 5 min reequilibration at 25% B. Mobile phase A was 0.1% TFA in water, and mobile phase B was 0.1% TFA in acetonitrile. The elute was then split (10:1) into PDA and SQD detectors. The SQD detector was set up as ES positive, capillary voltage at 3.2 kV, cone voltage at 40 V, extractor at 3 V, and RF lens at 0.2 V, source temperature at 150° C., and desolvation temperature at 250° C. Mass data was acquired at 200-2000 m/z for 40 min, continuum mode, scan time 1 second. Data was analyzed and deconvoluted offline using MassLynx and MaxEnt1. DAR was calculated using the formula:\n2[[AUCLC+1+2(AUCLC+2)+3(AUCLC+3)+ . . . n(AUCLC+n)]/[…]]+2[[AUCHC+1+2(AUCHC+2)+3(AUCHC+3)+ . . . n(AUCHC+n)]/ΣAUCHCtot]\nwhere AUCLC+1 is the area under the curve of the light chain peak conjugated with one cytotoxin, AUCLC+2 is the area under the curve of the light chain peak conjugated with two cytotoxins, etc. AUCHC is the area under the curve of the corresponding heavy chains, and ΣAUCLCtot and ΣAUCHCtot are the combined area under the curve of all unconjugated and conjugated light chains and heavy chains, respectively."}, "[3]": {"conditions": "MORAb-003 10 μM (1.5 mg/ml), TCEP 20 μM, 10 min"}, "[4]": {"conditions": "MORAb-003 10 μM (1.5 mg/ml), TCEP 20 μM, 30 min"}, "[5]": {"conditions": "MORAb-003 10 μM (1.5 mg/ml), TCEP 20 μM, 60 min"}, "[6]": {"conditions": "MORAb-003 10 μM (1.5 mg/ml), TCEP 20 μM, 120 min"}, "[7]": {"conditions": "MORAb-003 10 μM (1.5 mg/ml), TCEP 40 μM, 10 min"}, "[8]": {"conditions": "MORAb-003 10 μM (1.5 mg/ml), TCEP 40 μM, 30 min"}, "[9]": {"conditions": "MORAb-003 10 μM (1.5 mg/ml), TCEP 40 μM, 60 min"}, "[10]": {"conditions": "MORAb-003 10 μM (1.5 mg/ml), TCEP 40 μM, 120 min"}, "[11]": {"conditions": "MORAb-003 35.3 μM (5.3 mg/ml), TCEP 70.6 μM, 10 min"}, "[12]": {"conditions": "MORAb-003 35.3 μM (5.3 mg/ml), TCEP 70.6 μM, 30 min"}, "[13]": {"conditions": "MORAb-003 35.3 μM (5.3 mg/ml), TCEP 70.6 μM, 60 min"}, "[14]": {"conditions": "MORAb-003 35.3 μM (5.3 mg/ml), TCEP 70.6 μM, 120 min"}, "[15]": {"conditions": "MORAb-003 35.3 μM (5.3 mg/ml), TCEP 141.2 μM, 10 min"}, "[16]": {"conditions": "MORAb-003 35.3 μM (5.3 mg/ml), TCEP 141.2 μM, 30 min"}, "[17]": {"conditions": "MORAb-003 35.3 μM (5.3 mg/ml), TCEP 141.2 μM, 60 min"}, "[18]": {"conditions": "MORAb-003 35.3 μM (5.3 mg/ml), TCEP 141.2 μM, 120 min"}}}
{"substance": "MORAb-003: humanized anti-human folate receptor alpha antibody (USAN name: farletuzumab)", "values": [{"measurement": "Disulfide bonds reduced per MAb", "setting": "[1]; [3]", "value": 0.7, "unit": "per MAb"}, {"measurement": "Free thiol", "setting": "[1]; [3]", "value": 13.3, "unit": "µM"}, {"measurement": "Disulfide bonds reduced per MAb", "setting": "[1]; [4]", "value": 0.7, "unit": "per MAb"}, {"measurement": "Free thiol", "setting": "[1]; [4]", "value": 14.7, "unit": "µM"}, {"measurement": "Disulfide bonds reduced per MAb", "setting": "[1]; [5]", "value": 0.8, "unit": "per MAb"}, {"measurement": "Free thiol", "setting": "[1]; [5]", "value": 15.2, "unit": "µM"}, {"measurement": "Disulfide bonds reduced per MAb", "setting": "[1]; [6]", "value": 0.7, "unit": "per MAb"}, {"measurement": "Free thiol", "setting": "[1]; [6]", "value": 14.6, "unit": "µM"}, {"measurement": "Disulfide bonds reduced per MAb", "setting": "[1]; [7]", "value": 1.1, "unit": "per MAb"}, {"measurement": "Free thiol", "setting": "[1]; [7]", "value": 21.8, "unit": "µM"}, {"measurement": "Disulfide bonds reduced per MAb", "setting": "[1]; [8]", "value": 1.3, "unit": "per MAb"}, {"measurement": "Free thiol", "setting": "[1]; [8]", "value": 25.6, "unit": "µM"}, {"measurement": "Disulfide bonds reduced per MAb", "setting": "[1]; [9]", "value": 1.3, "unit": "per MAb"}, {"measurement": "Free thiol", "setting": "[1]; [9]", "value": 26.9, "unit": "µM"}, {"measurement": "Disulfide bonds reduced per MAb", "setting": "[1]; [10]", "value": 1.4, "unit": "per MAb"}, {"measurement": "Free thiol", "setting": "[1]; [10]", "value": 27.4, "unit": "µM"}, {"measurement": "Disulfide bonds reduced per MAb", "setting": "[1]; [11]", "value": 3.0, "unit": "per MAb"}, {"measurement": "Free thiol", "setting": "[1]; [11]", "value": 215, "unit": "µM"}, {"measurement": "Disulfide bonds reduced per MAb", "setting": "[1]; [12]", "value": 3.5, "unit": "per MAb"}, {"measurement": "Free thiol", "setting": "[1]; [12]", "value": 247.5, "unit": "µM"}, {"measurement": "Disulfide bonds reduced per MAb", "setting": "[1]; [13]", "value": 4.2, "unit": "per MAb"}, {"measurement": "Free thiol", "setting": "[1]; [13]", "value": 297.6, "unit": "µM"}, {"measurement": "Disulfide bonds reduced per MAb", "setting": "[1]; [14]", "value": 3.8, "unit": "per MAb"}, {"measurement": "Free thiol", "setting": "[1]; [14]", "value": 266.8, "unit": "µM"}, {"measurement": "Disulfide bonds reduced per MAb", "setting": "[1]; [15]", "value": 4.8, "unit": "per MAb"}, {"measurement": "Free thiol", "setting": "[1]; [15]", "value": 339, "unit": "µM"}, {"measurement": "Disulfide bonds reduced per MAb", "setting": "[1]; [16]", "value": 5.3, "unit": "per MAb"}, {"measurement": "Free thiol", "setting": "[1]; [16]", "value": 372.8, "unit": "µM"}, {"measurement": "Disulfide bonds reduced per MAb", "setting": "[1]; [17]", "value": 5.4, "unit": "per MAb"}, {"measurement": "Free thiol", "setting": "[1]; [17]", "value": 384.2, "unit": "µM"}, {"measurement": "Disulfide bonds reduced per MAb", "setting": "[1]; [18]", "value": 6.8, "unit": "per MAb"}, {"measurement": "Free thiol", "setting": "[1]; [18]", "value": 479.8, "unit": "µM"}, {"measurement": "HC (heavy chain biotin level)", "setting": "[2]; TCEP:mAb 1, TCEP 33.3 μM", "value": 0.34}, {"measurement": "LC (light chain biotin level)", "setting": "[2]; TCEP:mAb 1, TCEP 33.3 μM", "value": 0.29}, {"measurement": "HC (heavy chain biotin level)", "setting": "[2]; TCEP:mAb 2, TCEP 66.7 μM", "value": 0.83}, {"measurement": "LC (light chain biotin level)", "setting": "[2]; TCEP:mAb 2, TCEP 66.7 μM", "value": 0.48}, {"measurement": "HC (heavy chain biotin level)", "setting": "[2]; TCEP:mAb 3, TCEP 100 μM", "value": 1.21}, {"measurement": "LC (light chain biotin level)", "setting": "[2]; TCEP:mAb 3, TCEP 100 μM", "value": 0.63}, {"measurement": "HC (heavy chain biotin level)", "setting": "[2]; TCEP:mAb 4, TCEP 133.2 μM", "value": 1.70}, {"measurement": "LC (light chain biotin level)", "setting": "[2]; TCEP:mAb 4, TCEP 133.2 μM", "value": 0.73}]}
